Source: PubChem BioAssay AID1671190 (National Center for Advancing Translational Sciences (NCATS), 2021)
The whole screen tested about 580,000 compounds, of which about 6,100 (1.1%) were called active. Inconclusive results, whose numbers are uncertain, are shown with a selection of clear calls. The call rests on the fitted dose curve; in most records, active means well fitted inhibition curve with a large enough effect; inconclusive means small, poorly fitted or top-dose-only effect, or another doubt; inactive means no such curve, though single readings can be large or run the other way. Potencies of inconclusive entries are doubtful fits and often do not repeat.

Protein sequences, listed by entry. Tags and fused reporters are not part of them. Lines headed by an entry give the natural chain unless they say otherwise; changes in a name come on top.
UniProt P18054: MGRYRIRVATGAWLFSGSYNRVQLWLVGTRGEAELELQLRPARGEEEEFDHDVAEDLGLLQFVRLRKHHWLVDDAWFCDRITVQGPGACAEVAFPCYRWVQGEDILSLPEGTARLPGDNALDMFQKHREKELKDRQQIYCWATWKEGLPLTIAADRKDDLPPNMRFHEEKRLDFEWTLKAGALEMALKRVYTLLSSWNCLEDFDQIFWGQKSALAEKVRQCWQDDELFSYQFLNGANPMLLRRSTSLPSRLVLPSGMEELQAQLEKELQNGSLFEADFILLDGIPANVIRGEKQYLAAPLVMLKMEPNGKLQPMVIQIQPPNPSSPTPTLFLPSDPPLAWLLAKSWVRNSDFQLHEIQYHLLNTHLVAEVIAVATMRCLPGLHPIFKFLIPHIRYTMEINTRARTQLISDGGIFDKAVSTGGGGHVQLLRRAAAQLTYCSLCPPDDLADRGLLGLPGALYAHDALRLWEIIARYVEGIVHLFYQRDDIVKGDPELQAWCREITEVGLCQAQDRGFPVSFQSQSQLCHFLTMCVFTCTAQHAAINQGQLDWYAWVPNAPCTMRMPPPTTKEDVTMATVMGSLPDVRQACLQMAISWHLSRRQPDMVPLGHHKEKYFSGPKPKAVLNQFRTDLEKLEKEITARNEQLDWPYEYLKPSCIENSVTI

Molecular target: Polyunsaturated fatty acid lipoxygenase ALOX12 (Homo sapiens) (UniProt P18054)
Assay: Primary qHTS assay for inhibitors of human arachidonate 12S-lipoxygenase (ALOX12): Round 2
Details: purified 12hLO, xylenol orange hydroperoxide absorbance; series mostly up to 108 µM
Method in brief: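 Hydroperoxide product was detected by ferrous iron/xylenol orange as the 573 to 405 nm absorbance ratio. Arachidonic acid at 40 uM (final) was turned over for 30 min at room temperature by 150 nM human 12hLO, pH 7.0 Hepes buffer, after 15 min compound preincubation.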
Potency means the concentration at half of the fitted maximal effect.

SMILES | Potency
CC12CC(c3ccccc3O1)N(C(=O)c1ccco1)C(=S)N2c1ccccc1 (centres undefined) | inactive
COc1ccc(CN2COc3ccc4c(-c5ccccc5)cc(=O)oc4c3C2)cc1 | inconclusive: 44.7 µM [inhibitor, partial curve, poor fit]
Cc1ccc(CNC(=O)CN(c2ccc(Cl)cc2Cl)S(=O)(=O)c2ccccc2)cc1 | inconclusive: 3.98 µM [inhibitor, full curve, poor fit]
O=C(/C=C/c1ccco1)NCC1OCCc2ccccc21 (centres undefined) | active: 44.7 µM
Nc1nonc1-c1nc2ccccc2n1Cc1ccc(F)cc1 | inconclusive: 44.7 µM [inhibitor, partial curve, poor fit]
Cc1ccccc1Nc1cc2c(nc1-c1ccccc1)nc(C(=O)NCCN(C)C)n2C | inconclusive: 70.8 µM [inhibitor, partial curve]
O=C(/C=C/c1ccco1)NCC(=O)N/N=C/c1ccc(Cl)cc1 | inconclusive: 39.8 µM [inhibitor, partial curve]
COCc1nc(-c2ccc3c(c2)OCCCO3)cs1 | inactive
C1COC(NC(C2CC2)C2CC2)=N1 | inconclusive: 7.69 µM [inhibitor, partial curve, poor fit]
O=c1c(-c2cc(F)cc(F)c2)nc2cnc(N3CCNCC3)nc2n1Cc1cccs1 | inconclusive: 63.1 µM [inhibitor, partial curve, poor fit]
COc1ccc(CNC(=O)Nc2cccc(-c3ccc(N4CCCCC4)nn3)c2)cc1 | inactive
Cc1ccc(-n2nc3c(N4CCCC(C(=O)NCCc5ccccc5)C4)nnc(C)c3c2C)cc1 (centres undefined) | inactive
CCOC(=O)Cc1cc(=O)n2[nH]c(C)c(-c3ccc(OC)cc3)c2n1 | inactive
O=C(CN1CCCCCC1)Nc1ccc(F)c(F)c1 | inconclusive: 0.316 µM [inhibitor, full curve, poor fit]
COC(=O)c1ccccc1NC(=S)NC(=O)C1CC1 | inactive
COc1ccc(-c2csc(NC(=O)C3CCCO3)n2)cc1 (centres undefined) | inconclusive: 25.1 µM [inhibitor, partial curve]
O=C(c1ccccc1N1CCOCC1)N1CCCC(Nc2ccc(F)cc2)C1 (centres undefined) | inactive
COc1cccc(C(=O)Nc2c(C(=O)NC(C)(C)C)oc3ccccc23)c1 | inactive
Cc1c(C(=O)Nc2cccnc2)oc2ccc(Br)cc12 | inactive
Cn1c(=O)c2c(ncn2CCCC(=O)Nc2ccc(I)cc2)n(C)c1=O | inactive
CC(=O)Nc1cnc(-c2ccccc2C(F)(F)F)cn1 | inactive
CN(C)c1ccc(NC(=O)c2ccc3c(c2)nnn3C)cc1 | inactive
COc1ccc(CNC(=O)C[C@H]2C[C@H](C(=O)N(C(C)C)C(C)C)[C@@]3(C)c4[nH]c5cc(CCC(=O)N(C)C)ccc5c4CCN3C2=O)cc1OC | inconclusive: 35.5 µM [inhibitor, single point]

3 structures from above, ordered by formula weight, falling:
SMILES | Potency
COc1ccc(CNC(=O)C[C@H]2C[C@H](C(=O)N(C(C)C)C(C)C)[C@@]3(C)c4[nH]c5cc(CCC(=O)N(C)C)ccc5c4CCN3C2=O)cc1OC | inconclusive: 35.5 µM [inhibitor, single point]
Cn1c(=O)c2c(ncn2CCCC(=O)Nc2ccc(I)cc2)n(C)c1=O | inactive
Cc1ccc(CNC(=O)CN(c2ccc(Cl)cc2Cl)S(=O)(=O)c2ccccc2)cc1 | inconclusive: 3.98 µM [inhibitor, full curve, poor fit]

(next part)

SMILES | Potency
Cc1ccc(NC(=O)c2ccc(NC(=O)C3=CSCCO3)cc2)cc1C | inactive
O=C(Cc1ccccc1)Nc1ccc(N2CCOCC2)cc1N1CCOCC1 | inconclusive: 50.1 µM [inhibitor, partial curve, poor fit]
CCCCCn1nc(C(=O)Nc2cccc(OC)c2)c2ccccc2c1=O | inactive
COc1ccc(NC(=O)c2cc(C3CCCCN3C(=O)CCCc3ccccc3)on2)c(C)c1 (centres undefined) | inconclusive: 100 µM [inhibitor, single point]
CCN(CC)CCCn1c(-c2ccc(COc3cc(C)ccc3Cl)cc2)n[nH]c1=S | active: 35.5 µM
CCc1cccc2sc(N3CCN(C(=O)c4cc5ccccc5cc4OC)CC3)nc12 | inconclusive: 141 µM [inhibitor, partial curve, poor fit]
COc1ccc(C(=O)Nc2ccnn2C2CCN(C(=O)CN)CC2)cc1 | inactive
N#CC1=C(N)Oc2cc3c(cc2C1c1ccc(Cl)cc1)OCO3 (centres undefined) | inconclusive: 39.8 µM [inhibitor, partial curve, poor fit]
CCc1cccc(NC(=O)c2ccc3c(c2)N(C)C2CCCN2C3=O)c1 (centres undefined) | inconclusive: 44.7 µM [inhibitor, partial curve]
CCOc1ccc(CCN2C(=S)N([C@@H](Cc3ccc(O)cc3)CN3CCC[C@@H]3CN3C(=S)NC[C@@H]3Cc3ccc(O)cc3)C[C@@H]2Cc2ccc(O)cc2)cc1 | inconclusive: 50.1 µM [inhibitor, partial curve, poor fit]
Cn1c(C(=O)NC2CCCCC2)cc2sccc21 | inactive
Cc1nc2sc3c(c2c2nc(C(=O)NCCN4CCOCC4)nn12)CCC3 | inactive
CCNC(=O)O[C@@H]1CO[C@H]2[C@@H]1OC[C@@H]2NC(=S)Nc1ccc(N(C)C)cc1 | active: 112 µM
Cc1noc2nc(-c3ccccc3F)cc(C(=O)NCc3ccccc3)c12 | inactive
Cc1cn([C@H]2C[C@H](O)[C@@H](CCC(=O)NCCCn3ccnc3)O2)c(=O)[nH]c1=O | inconclusive: 39.8 µM [inhibitor, partial curve, poor fit]
COc1ccc(CC(=O)NCc2ccc3c(c2)CCN3C(=O)c2ccc(C)cc2)cc1OC | inactive
CCOc1ccc(CCNC(=O)c2noc(C)c2Cn2nc(C)cc2C)cc1 | inactive
CN(C)S(=O)(=O)N(CC(=O)N1CCN(c2ccccc2)CC1)c1ccc(F)cc1 | inconclusive: 112 µM [inhibitor, single point]
Cc1cc(C)cc(-c2nnc(SCC(=O)N3CCCC3)o2)c1 | inconclusive: 50.1 µM [inhibitor, single point]
CSc1nc(S(=O)(=O)c2ccc(C)cc2)c(N2CCOCC2)s1 | inconclusive: 44.7 µM [inhibitor, partial curve, poor fit]
O=C1CO[C@H]2CCN(Cc3cccc(OC(F)(F)F)c3)CC[C@@H]2N1Cc1c[nH]c2ccccc12 | inconclusive: 39.8 µM [inhibitor, partial curve]
CCCCNC(=O)CS(=O)Cc1nc(-c2ccc(Cl)cc2)oc1C (centres undefined) | inconclusive: 1.78 µM [inhibitor, full curve, poor fit]
CCOC(=O)Cn1cccc1-c1nc(-c2ccc(OC)cc2)c(-c2ccc(OC)cc2)s1 | inconclusive: 11.4 µM [inhibitor, partial curve]

Structural class, those above with fluorine
SMILES | Potency
Nc1nonc1-c1nc2ccccc2n1Cc1ccc(F)cc1 | inconclusive: 44.7 µM [inhibitor, partial curve, poor fit]
O=c1c(-c2cc(F)cc(F)c2)nc2cnc(N3CCNCC3)nc2n1Cc1cccs1 | inconclusive: 63.1 µM [inhibitor, partial curve, poor fit]
O=C(CN1CCCCCC1)Nc1ccc(F)c(F)c1 | inconclusive: 0.316 µM [inhibitor, full curve, poor fit]
O=C(c1ccccc1N1CCOCC1)N1CCCC(Nc2ccc(F)cc2)C1 (centres undefined) | inactive
CC(=O)Nc1cnc(-c2ccccc2C(F)(F)F)cn1 | inactive
Cc1noc2nc(-c3ccccc3F)cc(C(=O)NCc3ccccc3)c12 | inactive
CN(C)S(=O)(=O)N(CC(=O)N1CCN(c2ccccc2)CC1)c1ccc(F)cc1 | inconclusive: 112 µM [inhibitor, single point]
O=C1CO[C@H]2CCN(Cc3cccc(OC(F)(F)F)c3)CC[C@@H]2N1Cc1c[nH]c2ccccc12 | inconclusive: 39.8 µM [inhibitor, partial curve]

The list continues.

SMILES | Potency
CN1CC2(CCN(C(=O)c3cccc(C#N)c3)CC2)CC1C(=O)N1CCOCC1 (centres undefined) | inactive
Cc1cc2nc3c(=O)[nH]c(=S)[nH]c3nc2cc1NC(=O)C(F)(F)F | inconclusive: 5.01 µM [inhibitor, partial curve, poor fit]
COc1ccc(CCn2c(N)c(C(=O)NCc3ccco3)c3nc4ccccc4nc32)cc1 | inconclusive: 44.7 µM [inhibitor, partial curve, poor fit]
Nc1cc(F)ccc1N1CCCCCC1 | inactive
Oc1cccc(Nc2c3ccccc3nc3ccccc23)c1 | inconclusive: 70.8 µM [inhibitor, partial curve, poor fit]
O=C(CCc1cccnc1)NCCc1c[nH]c2ccccc12 | inactive
CCC(C(=O)Nc1ccc(F)c(Cl)c1)n1nc(-c2ccccc2)ccc1=O (centres undefined) | inconclusive: 22.4 µM [inhibitor, full curve, poor fit]
Cc1cc(C(=O)NNC(C)Cc2ccccc2)no1 (centres undefined) | inconclusive: 79.4 µM [inhibitor, partial curve, poor fit]
CC1=C(c2ccc(Cl)cc2)S(=O)(=O)NC1=NCc1ccc(C)cc1 | inconclusive: 141 µM [inhibitor, partial curve, poor fit]
O=C1CS(=O)(=O)C2(CCNCC2)N1 | inconclusive: 44.7 µM [inhibitor, partial curve]
S=C(NCCc1ccccc1)NCc1ccccc1Br | inconclusive: 44.7 µM [inhibitor, partial curve, poor fit]
Cc1ccc(CCNC(=O)c2ccc(CSCc3ccc(C)cc3)o2)cc1 | inconclusive: 63.1 µM [inhibitor, partial curve, poor fit]
COc1ccc(C(=O)c2ccc(C)cc2)c(OC)c1OC | inconclusive: 7.94 µM [inhibitor, full curve, poor fit]
O=C(C[C@H]1C[C@H](C(=O)N2CCCCC2)[C@@]2(CCc3ccccc3)c3[nH]c4ccc(Cl)cc4c3CCN2C1=O)NCc1ccco1 | inconclusive: 44.7 µM [inhibitor, partial curve, poor fit]
COc1ccc(-c2nc3scc(CCNS(=O)(=O)c4cccc(C(C)=O)c4)n3n2)cc1 | inconclusive: 22.4 µM [inhibitor, partial curve, poor fit]
O=C1CCCCC1Nc1ccc(Cl)cc1 (centres undefined) | inconclusive: 44.7 µM [inhibitor, partial curve, poor fit]
Brc1ccc(-c2nnc(COc3cccc(-n4cnnn4)c3)o2)s1 | inconclusive: 44.7 µM [inhibitor, partial curve, poor fit]
Cc1nc(C(=O)NC2CCCCC2)sc1C1(C)CC(c2cccc([N+](=O)[O-])c2)=NO1 (centres undefined) | inactive
COc1ccc(CN2CCN(Cc3c[nH]c4ccccc34)CC2)cc1 | active: 0.708 µM
CC(C)(C)C(O)(CC#CCN1CCCC1)c1ccccc1 (centres undefined) | inconclusive: 50.1 µM [inhibitor, partial curve, poor fit]
CCCCCC(=O)Nc1cc(S(=O)(=O)N2CCCCC2)ccc1N1CCOCC1 | inactive
O=C(c1csc2c1CCCC2)N1CCN(c2cccc(C(F)(F)F)c2)CC1 | inconclusive: 141 µM [inhibitor, single point]
CCCOC(=O)c1[nH]c2c(c1C)C(=O)CC(c1ccc(OC)c(OC)c1)C2 (centres undefined) | inactive
